Experimental data taken from PubChem BioAssay AID2669 (National Center for Advancing Translational Sciences (NCATS), 2010).
The shares of active, inactive and inconclusive entries below differ from those in the screen. Potencies beside an inconclusive call are fits to weak or partial responses and may not hold up. The source made the active and inactive calls. Calls follow the shape of the dose curve; as a rule, active = well fitted inhibition curve with a large enough effect; inconclusive = small, poorly fitted or top-dose-only effect, or effect the other way; inactive = flat fitted curve, though single readings scatter.

Assay: qHTS Assay Multiplex Screening to Identify Dual Action Probes in a Cell Model of Huntington: Cytoprotection (Protease relase)
Conditions: PC12 HttQ103 cells, Cytotox-Glo protease release, 40 h; series mostly up to 46.1 µM; activity change, negative = inhibition: at the top concentration
Text: NIH Chemical Genomics Center [NCGC]
NIH Molecular Libraries Probe Production centers Network [MLPCN]
Assay Submitter (PI): Wei Zheng
Huntington's disease is a neurodegenerative disorder caused by a trinucleotide repeat expansion in Exon 1 of the Huntingtin gene. The CAG trinucleotide encodes glutamine and polyglutamine expansions cause cell death in selective areas of the brain. Huntington polyglutamine repeats have the tendency to form aggregates which are observable in later stages of the disease. The exact nature of the aggregates, whether toxic, protective, or insignificant, is unclear.
A stable PC12 cell line containing a gene fusion of Exon 1 of the Huntingtin gene linked to GFP under the control of the inducible ecdysone promoter were used as the cell-based model of Huntington Disease for high throughput screening. Exon 1 of the Huntingtin gene contained an expansion of 103 polyglutamines (Q103) which, when expressed, caused cell death and distinct, bright GFP aggregates. The amount of cell death and the size and intensity of GFP aggregates increased over time and induction level. In the primary screen, cell death were quantified with a measurement of ATP content in the cells. A maximal 40-50% of cell death was observed when the Huntington gene was induced in this cell line.
We optimized this assay in a homogeneous 1536 well format. A quantitative high throughput screen (qHTS) was conducted on the PC12 cells which were induced to express the toxic fusion construct. Small molecules which prevented cell death were considered hits, and were further studied. The present assay is an alternate assay for cytoprotection using Promega's Cytotox-Glo reagent.
PC12 cells stably containing a construct with an ecdysone inducible promoter expressing GFP fused to the exon 1 of HTTQ103 (Huntington protein which containing a 103 ployglutamine expansion) were used.
NCGC Assay Protocol Summary:
Sequence, Parameter, Description
1, Reagent, 5 uL 1500 cells/well 1536 TC treated White clear bottom plate
2, Compound, 23 nL Tebufenozide inducer (100 nM final) to all columns
3, Compound, 23 nL 40 uM to 0.5 nM Libraries
5, Reagent, 2 ul Promega's Cytotox-Glo assay reagent
6, Detector, 4 sec integration with a Viewlux Luminescent
Media consisted of phenol red free DMEM + 5% equine serum (Hyclone # SH30072.03 ), 5% supplemented Bovine Calf Serum (Hyclone # SH30074.03 ), 1x pen/strep, no G418

Structure (SMILES)	Potency	activity change, negative = inhibition
NC(=O)c1sc2nc3c(c(-c4cccs4)c2c1N)CCCC3	inconclusive: 15.8 µM [inhibitor, partial curve, poor fit]	–
Oc1cc(Cl)ccc1Oc1ccc(Cl)cc1Cl	–	inactive: -6.35%
O=Nc1ccc(Nc2ccccc2)cc1	inconclusive: 7.94 µM [inhibitor, full curve, poor fit]	–
C[C@H]1CC[C@@]2(NC1)O[C@@H]1C[C@H]3[C@@H]4CC=C5C[C@@H](O)CC[C@]5(C)[C@@H]4CC[C@]3(C)[C@@H]1[C@@H]2C	–	inactive: 15%
CCCCCCOc1ccc(C(=O)n2cnc(N)n2)cc1	inconclusive: 25.1 µM [inhibitor, partial curve, poor fit]	–
c1ccc2c(c1)OC[C@@H](C1=NCCN1)O2	inconclusive: 31.6 µM [inhibitor, partial curve, poor fit]	–
CC[C@]1(C2=NCCN2)Cc2ccccc2O1	–	inactive: 6.43%
